Toxic dose and Tolerated dose data for one molecule are collected here from patent US8119660B2, “Small-molecule inhibitors of the androgen receptor” (The Regents of the University of California, priority 2007, dated 2012).

The subject of this series is mice.

`Cc1cc(/C=C/c2ccc3cc(N(C)C)ccc3[n+]2C)c(C)n1-c1ccccc1` [PP, pyrvinium pamoate] had a Toxic dose (mice, doses from 0.1 to 10 mg/kg tested) of 10 mg/kg. The molecule further gave a Tolerated dose (mouse, in vivo) of 5 mg/kg.
